Data as given in PubChem BioAssay AID1259306 (Sanger Institute, 2017)
The whole screen tested 794 reagents; shown is an unselected part. 11 of all reagents (1.4%) count as active. 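Calls reflect knock-down alone; synergy scores play no part, so knock-downs synergising with a drug can be called no change.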 A number with no mark means an inactive call. Viability is capped at 1. Further read-outs or replicates are left out here. Not stated in the record: the amount of reagent, the time to read-out.

- Screen: 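Find kinases whose loss reduces colorectal cancer cell viability or aids targeted drugs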 (primary screen)
- Cell system: human SNU-C5 colorectal cancer cells
- Reagent: siRNA pool against human genes
- Challenge: DMSO vehicle alone, or one anchor drug: BYL719 at 1 µM, cetuximab at 5 µg/ml or trametinib at 10 nM, given 24 h into the assay
- Measurement: 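Viability versus non-targeting pool averaged across replicates, given as fraction and robust z-score, and synergy scores for BYL719, cetuximab or trametinib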
- Scale: robust z-score, knock-down alone and viability, knock-down alone: higher = more viable cells; synergy score with BYL719: higher = stronger synthetic lethality with BYL719
- Rule for the call: 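Essential if knock-down without drug gives a robust z-score under -3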
- Meaning of the calls: active = essential (knock-down alone); inactive = no change alone

no.	Target gene	robust z-score, knock-down alone	viability, knock-down alone	synergy score with BYL719
1	STK32A (serine/threonine kinase 32A)	0.989	1	0
2	EPHB4 (EPH receptor B4)	-0.341	0.817	-0.125
3	IRAK2 (interleukin 1 receptor associated kinase 2)	-0.0314	0.859	-0.141
4	PCBP1 (poly(rC) binding protein 1)	-0.919	0.737	-0.0519
5	STK24 (serine/threonine kinase 24)	-0.486	0.797	-0.203
6	NRAS (NRAS proto-oncogene, GTPase)	-0.389	0.81	-0.164
7	SRPK3 (SRSF protein kinase 3)	0.989	1	0.0896
8	MAPK12 (mitogen-activated protein kinase 12)	0.989	1	0.0141
9	CDK19 (cyclin dependent kinase 19)	0.989	1	0.217
10	TPD52L3 (TPD52 like 3)	-0.33	0.818	0.0466
11	CMPK1 (cytidine/uridine monophosphate kinase 1)	0.611	0.948	-0.0479
12	FRK (fyn related Src family tyrosine kinase)	0.989	1	0.0155
13	PKN3 (protein kinase N3)	0.648	0.953	0.157
14	TRIO (trio Rho guanine nucleotide exchange factor)	-0.407	0.808	-0.00788
15	ALPK2 (alpha kinase 2)	-0.0845	0.852	0.115
16	CAMK1D (calcium/calmodulin dependent protein kinase ID)	-0.138	0.845	-0.138
17	DUSP21 (dual specificity phosphatase 21)	0.327	0.909	0.182
18	GUK1 (guanylate kinase 1)	-0.109	0.849	-0.0179
19	PIK3R1 (phosphoinositide-3-kinase regulatory subunit 1)	0.34	0.911	-0.00587
20	CSNK2A1 (casein kinase 2 alpha 1)	0.989	1	0.146
21	PSTK (phosphoseryl-tRNA kinase)	-2.14	0.569	0.0755
22	DAPK3 (death associated protein kinase 3)	-1.2	0.699	0.181
23	PRKAG2 (protein kinase AMP-activated non-catalytic subunit gamma 2)	0.989	1	0.159
24	UCKL1 (uridine-cytidine kinase 1 like 1)	0.989	1	0.081
25	ITPKA (inositol-trisphosphate 3-kinase A)	0.0859	0.876	-0.00363
26	GRK1 (G protein-coupled receptor kinase 1)	0.989	1	0.0606
27	CDKN2B (cyclin dependent kinase inhibitor 2B)	0.657	0.954	-0.0286
28	GRK4 (G protein-coupled receptor kinase 4)	-0.288	0.824	0.206
29	LMTK1 (lemur tail kinase 1)	0.989	1	0.0621
30	RPS6KL1 (ribosomal protein S6 kinase like 1)	0.308	0.906	-0.0759
31	TEX14 (testis expressed 14, intercellular bridge forming factor)	-0.56	0.787	0.125
32	DTYMK (deoxythymidylate kinase)	0.989	1	0.242
33	WNK1 (WNK lysine deficient protein kinase 1)	0.283	0.903	0.0728
34	EPHA10 (EPH receptor A10)	-0.686	0.769	0.157
35	AK2 (adenylate kinase 2)	0.989	1	0.0278
36	TP53BP1 (tumor protein p53 binding protein 1)	-1.46	0.662	-0.00789
37	GRK3 (G protein-coupled receptor kinase 3)	0.914	0.99	-0.0104
38	GOLGA5 (golgin A5)	0.468	0.928	0.056
39	AKAP9 (A-kinase anchoring protein 9)	0.424	0.922	0.0613
40	YES1 (YES proto-oncogene 1, Src family tyrosine kinase)	0.989	1	0.111
41	CSNK1D (casein kinase 1 delta)	0.516	0.935	0.0396
42	THNSL1 (threonine synthase like 1)	0.739	0.966	-0.0344
43	NME5 (NME/NM23 family member 5)	0.137	0.883	0.195
44	CDK3 (cyclin dependent kinase 3)	0.895	0.987	0.51
45	PKIB (cAMP-dependent protein kinase inhibitor beta)	0.233	0.896	-0.0647
46	ACSL6 (acyl-CoA synthetase long chain family member 6)	0.443	0.925	-0.0752
47	PIK3R4 (phosphoinositide-3-kinase regulatory subunit 4)	-0.397	0.809	0.178
48	BLK (BLK proto-oncogene, Src family tyrosine kinase)	0.989	1	0.148
49	ALPK1 (alpha kinase 1)	-0.264	0.827	0.157
50	MYH10 (myosin heavy chain 10)	-0.219	0.834	0.0618

4 of these entries, reformatted:
NME5 (NME/NM23 family member 5) | robust z-score, knock-down alone: 0.137; viability, knock-down alone: 0.883; synergy score with BYL719: 0.195
CDK3 (cyclin dependent kinase 3) | robust z-score, knock-down alone: 0.895; viability, knock-down alone: 0.987; synergy score with BYL719: 0.51
PKIB (cAMP-dependent protein kinase inhibitor beta) | robust z-score, knock-down alone: 0.233; viability, knock-down alone: 0.896; synergy score with BYL719: -0.0647
ACSL6 (acyl-CoA synthetase long chain family member 6) | robust z-score, knock-down alone: 0.443; viability, knock-down alone: 0.925; synergy score with BYL719: -0.0752
